## Screening data

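Control-channel Italica luciferase signal in doxycycline-induced 293T-iDUX4 cells, given as percent activity after a 24-hour treatment. The test concentration is not given here. Percent change in the Italica control signal; more negative values mean stronger inhibition, which points to nonspecific, tet-on or cytotoxic effects.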

Values are in %. Common to all entries: measured here: Italica tet-on control reporter. This is a side read-out of the assay, for part of the compounds, not drawn at random.

| # | SMILES | activity change (%) |
|---|---|---|
| 1 | `N#C[C@H]1[C@H](c2ccccc2C2=CCCCC2)[C@H](CO)N1C(=O)NC1CCCC1` | -49.39 |
| 2 | `COc1cccc(S(=O)(=O)N2CCCCN3[C@H](CO)[C@H](c4ccc(-c5cccnc5)cc4)[C@H]3C2)c1` | -8.774 |
| 3 | `O=C(C1CCOCC1)N1[C@@H](CO)[C@@H](c2ccccc2)C12CN(Cc1cccc(Cl)c1)C2` | 2.65 |
| 4 | `N#C[C@@H]1[C@H](c2ccccc2-c2cccc(F)c2)[C@H](CO)N1C(=O)NC1CCCCC1` | -31.59 |
| 5 | `N#Cc1cccc(-c2ccc(C3[C@H]4CNC[C@@H]3N4Cc3cc(-c4ccccc4)on3)cc2)c1` (some centres unmarked) | -90.46 |
| 6 | `O=C(c1ccc2c(c1)OCO2)N1CC[C@H]2[C@H](CO)Nc3ccc(-c4ccccc4)cc3[C@H]21` | -35.42 |
| 7 | `O=C(Cc1ccncc1)N1CCCCN2[C@H](C1)[C@@H](c1ccc(C#Cc3ccccc3F)cc1)[C@@H]2CO` | -13.72 |
| 8 | `Cc1cccc(-c2ccc([C@@H]3[C@@H](CO)N4CCCCN(S(=O)(=O)c5cccs5)C[C@@H]34)cc2)c1` | -5.472 |
| 9 | `O=C(C[C@H]1CC[C@@H]2[C@H](COC[C@H](O)CN2Cc2ccccc2F)O1)N[C@@H]1CCN(Cc2ccccc2)C1` | -20.31 |
| 10 | `O=C(C[C@@H]1CC[C@@H]2[C@H](COC[C@@H](O)CN2Cc2cc(F)ccc2F)O1)NCc1ccc(Cl)cc1` | -5.395 |
| 11 | `COc1ccccc1-c1ccc([C@H]2[C@@H](CO)N3CCCCN(Cc4ccncc4)C[C@H]23)cc1` | 2.348 |
| 12 | `COc1cccc(CN2[C@H](CO)[C@H](c3ccccc3)C23CN(C(=O)C2CCC2)C3)c1` | 1.486 |
| 13 | `O=C(CN1CCOCC1)N1CCCCN2[C@@H](CO)[C@H](c3ccc(C#Cc4ccccc4F)cc3)[C@@H]2C1` | -9.92 |
| 14 | `O=C(c1ccc2c(c1)OCO2)N1CC[C@@H]2[C@@H](CO)Nc3ccc(-c4ccccc4)cc3[C@@H]21` | -28.2 |
| 15 | `C[C@H](CO)N1C[C@H](C)[C@H](CN(C)S(=O)(=O)c2ccc(Cl)cc2)OCc2ccccc2-c2c(n(C)c3ccccc23)C1=O` | -86.01 |
| 16 | `OC[C@H]1[C@H](c2ccc(-c3ccc(F)cc3)cc2)[C@@H]2CN(CCC(F)(F)F)CCCCN12` | -6.581 |
| 17 | `COc1ccc(S(=O)(=O)Nc2ccc3c(c2)C(=O)N([C@H](C)CO)C[C@H](C)[C@@H](CN(C)C(=O)Nc2cccc4ccccc24)OCCCC[C@@H](C)O3)cc1` | -38.03 |
| 18 | `O=C(Cc1cccnc1)N1CC(=O)N2[C@H](C1)[C@@H](c1ccc(/C=C/c3ccccc3)cc1)[C@@H]2CO` | -18.06 |
| 19 | `COc1cccc(-c2ccc3c(c2)[C@@H]2[C@@H](CCN2S(=O)(=O)c2ccccc2OC)[C@H](CO)N3)c1` | -84.17 |
| 20 | `O=C(C[C@@H]1CC[C@H]2[C@@H](COC[C@H](O)CN2Cc2cccc(F)c2)O1)NCC1CCCCC1` | -4.078 |
| 21 | `O=C(C[C@@H]1CC[C@@H]2[C@H](COC[C@@H](O)CN2Cc2cccc(-c3ccncc3)c2)O1)N1CCOCC1` | -22.42 |
| 22 | `COc1cccc(S(=O)(=O)Nc2ccc3c(c2)C(=O)N(C)C[C@H](OC)[C@H](C)CN(Cc2ccccc2F)[C@H](C)CO3)c1` | -11.95 |
| 23 | `O=C(C[C@H]1C[C@@H]2c3cc(NC(=O)Nc4ccc(C(F)(F)F)cc4)ccc3O[C@@H]2[C@H](CO)O1)NCCc1ccccc1` | -13.43 |
| 24 | `C[C@H]1CN([C@@H](C)CO)C(=O)CCCn2nncc2CO[C@H]1CN(C)Cc1ccc(C(F)(F)F)cc1` | 3.167 |
| 25 | `C[C@H](NC(=O)C[C@H]1CC[C@@H]2[C@H](COC[C@H](O)CN2Cc2ccc(C(F)(F)F)cc2)O1)c1ccccc1` | -12.98 |
| 26 | `COc1ccc(-c2ccc([C@@H]3[C@H]4CN(C(=O)c5ccc(F)cc5)CCCCN4[C@H]3CO)cc2)cc1` | -20.84 |
| 27 | `COC(=O)C[C@H]1C[C@@H]2c3cc(NC(=O)Nc4ccc(C(F)(F)F)cc4)ccc3O[C@@H]2[C@@H](CO)O1` | -8.362 |
| 28 | `CCC(=O)N1CC2(CCN(Cc3ccc(Cl)cc3)CC2)c2c([nH]c3cc(OC)ccc23)[C@@H]1CO` | -41.65 |
| 29 | `CN(C)CC(=O)Nc1ccc2c(c1)[C@@H]1C[C@@H](CC(=O)NCc3ccc(-c4ccccc4)cc3)O[C@@H](CO)[C@@H]1O2` | -4.815 |
| 30 | `COCC(=O)Nc1ccc2c(c1)[C@H]1C[C@@H](CC(=O)NCc3ccc(-c4ccccc4)cc3)O[C@H](CO)[C@H]1O2` | -32.98 |
| 31 | `CN(C)C(=O)c1cccc(-c2ccc(C3[C@@H]4CN(Cc5ccccc5F)C[C@H]3N4)cc2)c1` (some centres unmarked) | -19.09 |
| 32 | `C[C@H](CO)N1C[C@H](C)[C@H](CN(C)Cc2cccc3c2OCCCO3)OCc2ccccc2-c2c(n(C)c3ccccc23)C1=O` | -26.9 |
| 33 | `CCN1[C@@H]2c3ccc(-c4cccnc4)c(=O)n3C[C@@H]2[C@@H](CO)[C@@H]1C(=O)NCc1ccccc1` | -6.614 |
| 34 | `O=C(C[C@@H]1CC[C@@H]2[C@H](COC[C@H](O)CN2S(=O)(=O)c2cccc(Cl)c2)O1)Nc1ccc(-c2ccccc2)cc1` | -5.05 |
| 35 | `N#Cc1cccc(-c2ccc3c(c2)[C@H]2[C@H](CCN2S(=O)(=O)c2ccc(F)cc2)[C@@H](CO)N3)c1` | -4.217 |
| 36 | `O=C(C[C@@H]1C[C@H]2c3cc(NS(=O)(=O)c4ccc(F)cc4)ccc3O[C@H]2[C@H](CO)O1)NCc1ccc(Cl)cc1` | -71.78 |
| 37 | `CN1CCN(C(=O)C[C@H]2CC[C@H]3[C@@H](COC[C@H](O)CN3Cc3ccc(Oc4ccccc4)cc3)O2)CC1` | -22.87 |
| 38 | `C[C@@H]1CN([C@H](C)CO)C(=O)c2c(c3ccccc3n2C)-c2ccccc2CO[C@H]1CN(C)Cc1ccc2c(c1)OCO2` | -4.383 |
| 39 | `COCC(=O)N1CC[C@@H]2[C@H]1c1cc(-c3ccccc3)ccc1N(C)[C@@H]2CO` | -8.924 |
| 40 | `O=C(CC1CC1)N1CC(=O)N2[C@H](CO)[C@@H](c3ccc(-c4ccccc4)cc3)[C@@H]2C1` | -53.66 |
| 41 | `C[C@H](CO)N1C[C@H](C)[C@@H](CN(C)S(=O)(=O)c2ccc(Cl)cc2)OCc2ccccc2-c2c(n(C)c3ccccc23)C1=O` | -38.92 |
| 42 | `O=C(Cc1ccccn1)N1CC2(C1)[C@@H](c1ccccc1)[C@@H](CO)N2Cc1ccccn1` | -10.77 |
| 43 | `Cc1ccc(S(=O)(=O)N2CC[C@H]3[C@H](CO)Nc4ccc(-c5ccccc5F)cc4[C@H]32)cc1` | -5.058 |
| 44 | `Cc1ccccc1-c1ccc(C2[C@@H]3CN(Cc4cocn4)C[C@H]2N3)cc1` (some centres unmarked) | -5.952 |
| 45 | `O=C(C[C@@H]1C[C@@H]2c3cc(NS(=O)(=O)c4ccc(F)cc4)ccc3O[C@@H]2[C@H](CO)O1)NCc1ccc(Cl)cc1` | -11.61 |
| 46 | `C[C@@H]1CN([C@@H](C)CO)C(=O)c2c(c3ccccc3n2C)-c2ccccc2CO[C@H]1CN(C)S(=O)(=O)c1ccc(F)cc1` | -25.44 |
| 47 | `CO[C@H]1CN(C)C(=O)c2ccc(NC(=O)c3nc4ccccc4s3)cc2OC[C@@H](C)N(Cc2cccnc2)C[C@H]1C` | -12.84 |
| 48 | `COc1ccc2c3c([nH]c2c1)[C@@H](CO)N(CC1CC1)CC31CN(C(=O)c2cccc(F)c2)C1` | -5.542 |
| 49 | `C[C@H]1CN([C@@H](C)CO)C(=O)c2c(c3ccccc3n2C)-c2ccccc2CO[C@H]1CN(C)S(=O)(=O)c1ccc(Cl)cc1` | -58.59 |
| 50 | `CCS(=O)(=O)N1CC2(CN(Cc3ccc4c(c3)OCO4)[C@H](CO)c3[nH]c4cc(OC)ccc4c32)C1` | -14.13 |
| 51 | `O=C(Cc1ccccc1)N1CC[C@@H]2[C@H]1c1cc(C#Cc3ccccc3)ccc1N[C@@H]2CO` | -31.92 |
| 52 | `CCCC(=O)Nc1ccc2c(c1)OC[C@@H](C)N(CCc1ccccc1)C[C@@H](C)[C@H](OC)CN(C)C2=O` | -7.154 |
| 53 | `COc1cc(CN2C[C@@H]3N[C@H](C2)C3c2ccc(-c3cccc(OC)c3)cc2)cc(OC)c1` (some centres unmarked) | -58.61 |

3 of the entries, repeated:

Result for O=C(c1ccc2c(c1)OCO2)N1CC[C@@H]2[C@@H](CO)Nc3ccc(-c4ccccc4)cc3[C@@H]21 was activity change -28.2%.
Result for O=C(c1ccc2c(c1)OCO2)N1CC[C@H]2[C@H](CO)Nc3ccc(-c4ccccc4)cc3[C@H]21 was activity change -35.42%.
Result for O=C(C[C@@H]1CC[C@@H]2[C@H](COC[C@@H](O)CN2Cc2cccc(-c3ccncc3)c2)O1)N1CCOCC1 was activity change -22.42%.

The results are deposited in PubChem (AID1224904; Broad Institute, 2016).